{
  "source": "paper PMC4161388",
  "binders": {"B1": {"name": "N-terminally HA-tagged human RICH2 (protein, UniProt Q17R89 1-818)", "chain": "MKKQFNRMRQLANQTVGRAEKTEVLSEDLLQVEKRLELVKQVSHSTHKKLTACLQGQQGAEADKRSKKLPLTTLAQCLMEGSAILGDDTLLGKMLKLCGETEDKLAQELIHFELQVERDVIEPLFLLAEVEIPNIQKQRKHLAKLVLDMDSSRTRWQQTSKSSGLSSSLQPAGAKADALREEMEEAANRVEICRDQLSADMYSFVAKEIDYANYFQTLIEVQAEYHRKSLTLLQAVLPQIKAQQEAWVEKPSFGKPLEEHLTISGREIAFPIEACVTMLLECGMQEEGLFRVAPSASKLKKLKAALDCCVVDVQEYSADPHAIAGALKSYLRELPEPLMTFELYDEWIQASNVQEQDKKLQALWNACEKLPKANHNNIRYLIKFLSKLSEYQDVNKMTPSNMAIVLGPNLLWPQAEGNITEMMTTVSLQIVGIIEPIIQHADWFFPGEIEFNITGNYGSPVHVNHNANYSSMPSPDMDPADRRQPEQARRPLSVATDNMMLEFYKKDGLRKIQSMGVRVMDTNWVARRGSSAGRKVSCAPPSMQPPAPPAELAAPLPSPLPEQPLDSPAAPALSPSGLGLQPGPERTSTTKSKELSPGSAQKGSPGSSQGTACAGTQPGAQPGAQPGASPSPSQPPADQSPHTLRKVSKKLAPIPPKVPFGQPGAMADQSAGQPSPVSLSPTPPSTPSPYGLSYPQGYSLASGQLSPAAAPPLASPSVFTSTLSKSRPTPKPRQRPTLPPPQPPTVNLSASSPQSTEAPMLDGMSPGESMSTDLVHFDIPSIHIELGSTLRLSPLEHMRRHSVTDKRDSEEESESTAL"}},
  "assay_in_all_cases": "co-IP; 293 cells cotransfected with N-terminally HA-tagged human RICH2 and tetherin; IP with anti-tetherin antibody; blots for HA and tetherin",
  "key": {"[1]": {"biological_target": "African green monkey (AGM) tetherin (African green monkey (AGM))"}, "[2]": {"biological_target": "chimpanzee tetherin (chimpanzee) (UniProt D7RVC2)"}, "[3]": {"biological_target": "gorilla tetherin (gorilla)"}, "[4]": {"biological_target": "rhesus macaque tetherin (rhesus macaque)"}},
  "note": "No constants are given. Whether binding was seen depends on the method and setting. In cells and extracts the contact can be indirect. For some of these results: A result given as binding can be weak or reduced; the word gives no strength. Where a sequence is shown, tags or fusion partners need not be part of it.",
  "data": [
    {"binder": "B1", "values": [
      {"measurement": "binding", "setting": "[1]", "result": "no binding"},
      {"measurement": "binding", "setting": "[2]", "result": "binds"},
      {"measurement": "binding", "setting": "[3]", "result": "binds"},
      {"measurement": "binding", "setting": "[4]", "result": "binds"}
    ]}
  ]
}
